From the M2OR odorant receptor database
This is a selection; strong and weak results do not stand in their true shares. Calls are pooled over several reports, among them a noisy single-well screen.

Columns and labels:
Conditions in all cases: stereoisomer not certain
OR10T2 (Homo sapiens) = biological target: T1, OR10T2 (Homo sapiens) (UniProt Q8NGX3)
T1 sequence (whole entry): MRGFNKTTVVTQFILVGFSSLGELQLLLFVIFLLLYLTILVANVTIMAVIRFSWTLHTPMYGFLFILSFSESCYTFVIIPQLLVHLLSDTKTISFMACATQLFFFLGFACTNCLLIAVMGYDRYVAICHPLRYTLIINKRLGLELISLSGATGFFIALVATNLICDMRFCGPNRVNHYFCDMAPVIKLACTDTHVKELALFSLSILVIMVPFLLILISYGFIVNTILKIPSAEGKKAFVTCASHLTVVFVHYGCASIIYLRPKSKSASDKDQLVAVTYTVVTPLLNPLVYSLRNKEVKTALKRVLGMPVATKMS
Procedure, shortened: (§1)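 Transient luciferase assays in mammalian cell lines were common, though methods varied by source. The values come from published papers and their supplementary material, with extra details from the original authors when needed. Responsive refers to a measured signal the original authors judged statistically different from baseline, and non-responsive (inactive) to the remainder.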

OR10X1 (Homo sapiens) = biological target: T2, OR10X1 (Homo sapiens) (UniProt Q8NGY0)
T2 sequence (whole entry): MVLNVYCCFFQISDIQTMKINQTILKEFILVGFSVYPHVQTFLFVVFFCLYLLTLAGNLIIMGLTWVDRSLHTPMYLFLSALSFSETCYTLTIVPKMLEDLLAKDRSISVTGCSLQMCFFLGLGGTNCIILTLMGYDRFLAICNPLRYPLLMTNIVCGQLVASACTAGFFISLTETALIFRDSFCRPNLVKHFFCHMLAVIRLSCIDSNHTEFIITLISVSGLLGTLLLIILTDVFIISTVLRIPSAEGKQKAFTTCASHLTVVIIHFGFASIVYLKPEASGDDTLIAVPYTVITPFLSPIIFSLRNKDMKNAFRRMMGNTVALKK
Procedure, shortened: as §1

OR10Z1 (Homo sapiens) = biological target: T3, OR10Z1 (Homo sapiens) (UniProt Q8NGY1)
T3 sequence (whole entry): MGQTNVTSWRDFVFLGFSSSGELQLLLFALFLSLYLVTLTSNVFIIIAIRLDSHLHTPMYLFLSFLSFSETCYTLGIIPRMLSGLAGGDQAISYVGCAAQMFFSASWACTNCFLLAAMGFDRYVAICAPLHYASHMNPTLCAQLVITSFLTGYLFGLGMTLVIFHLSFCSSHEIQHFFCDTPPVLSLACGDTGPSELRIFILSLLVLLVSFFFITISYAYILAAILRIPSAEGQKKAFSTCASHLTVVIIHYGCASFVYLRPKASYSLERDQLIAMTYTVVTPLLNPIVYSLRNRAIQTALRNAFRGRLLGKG
Procedure, shortened: as §1

OR11A1 (Homo sapiens) = biological target: T4, OR11A1 (Homo sapiens) (UniProt Q9GZK7)
T4 sequence (whole entry): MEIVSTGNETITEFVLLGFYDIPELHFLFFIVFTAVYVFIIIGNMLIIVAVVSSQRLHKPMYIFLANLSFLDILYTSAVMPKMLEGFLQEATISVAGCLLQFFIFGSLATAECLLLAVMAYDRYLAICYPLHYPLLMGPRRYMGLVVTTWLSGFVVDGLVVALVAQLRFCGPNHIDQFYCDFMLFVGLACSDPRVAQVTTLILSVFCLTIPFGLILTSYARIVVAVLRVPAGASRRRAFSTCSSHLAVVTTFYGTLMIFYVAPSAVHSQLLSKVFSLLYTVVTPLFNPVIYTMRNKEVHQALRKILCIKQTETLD
Procedure, shortened: as §1

OR11H4 (Homo sapiens) = biological target: T5, OR11H4 (Homo sapiens) (UniProt Q8NGC9)
T5 sequence (whole entry): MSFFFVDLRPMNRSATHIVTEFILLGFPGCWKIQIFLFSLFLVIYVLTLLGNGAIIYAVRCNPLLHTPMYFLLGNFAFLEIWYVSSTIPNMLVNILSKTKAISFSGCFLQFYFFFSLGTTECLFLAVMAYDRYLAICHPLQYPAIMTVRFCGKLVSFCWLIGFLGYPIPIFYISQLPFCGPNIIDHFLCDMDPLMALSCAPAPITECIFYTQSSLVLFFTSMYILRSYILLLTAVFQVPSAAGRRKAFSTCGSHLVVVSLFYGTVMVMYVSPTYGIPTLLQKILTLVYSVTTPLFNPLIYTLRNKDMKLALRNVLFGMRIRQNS
Procedure, shortened: as §1

OR11H6 (Homo sapiens) = biological target: T6, OR11H6 (Homo sapiens) (UniProt Q8NGC7)
T6 sequence (whole entry): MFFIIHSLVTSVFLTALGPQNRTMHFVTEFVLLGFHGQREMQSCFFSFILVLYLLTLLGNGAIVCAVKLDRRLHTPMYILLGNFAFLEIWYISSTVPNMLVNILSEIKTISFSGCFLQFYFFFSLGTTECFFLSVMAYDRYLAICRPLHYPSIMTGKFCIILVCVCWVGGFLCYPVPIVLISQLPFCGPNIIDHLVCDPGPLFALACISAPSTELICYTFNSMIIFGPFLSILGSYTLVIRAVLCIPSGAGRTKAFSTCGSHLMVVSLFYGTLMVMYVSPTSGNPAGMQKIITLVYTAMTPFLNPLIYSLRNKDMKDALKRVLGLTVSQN
Procedure, shortened: as §1

OR12D2 (Homo sapiens) = biological target: T7, OR12D2 (Homo sapiens) (UniProt P58182)
T7 sequence (whole entry): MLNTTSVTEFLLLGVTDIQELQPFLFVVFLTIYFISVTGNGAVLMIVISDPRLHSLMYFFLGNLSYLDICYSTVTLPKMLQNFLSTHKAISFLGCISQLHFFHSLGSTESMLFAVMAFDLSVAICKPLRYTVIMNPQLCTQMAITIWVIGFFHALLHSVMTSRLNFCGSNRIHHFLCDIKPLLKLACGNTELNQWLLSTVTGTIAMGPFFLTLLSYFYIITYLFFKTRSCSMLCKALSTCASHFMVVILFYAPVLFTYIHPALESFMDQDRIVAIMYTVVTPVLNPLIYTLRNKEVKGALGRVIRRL
Procedure, shortened: as §1

OR12D3 (Homo sapiens) = biological target: T8, OR12D3 (Homo sapiens) (UniProt Q9UGF7)
T8 sequence (whole entry): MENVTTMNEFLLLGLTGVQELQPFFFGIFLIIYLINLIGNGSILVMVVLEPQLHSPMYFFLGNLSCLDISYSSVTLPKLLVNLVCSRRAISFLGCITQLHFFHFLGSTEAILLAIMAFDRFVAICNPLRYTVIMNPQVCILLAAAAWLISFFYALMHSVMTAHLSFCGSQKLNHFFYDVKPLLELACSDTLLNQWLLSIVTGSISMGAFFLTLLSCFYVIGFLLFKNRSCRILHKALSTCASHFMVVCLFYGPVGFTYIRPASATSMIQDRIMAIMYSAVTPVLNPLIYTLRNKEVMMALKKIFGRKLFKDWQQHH
Procedure, shortened: as §1

OR13A1 (Homo sapiens) = biological target: T9, OR13A1 (Homo sapiens) (UniProt Q8NGR1)
T9 sequence (whole entry): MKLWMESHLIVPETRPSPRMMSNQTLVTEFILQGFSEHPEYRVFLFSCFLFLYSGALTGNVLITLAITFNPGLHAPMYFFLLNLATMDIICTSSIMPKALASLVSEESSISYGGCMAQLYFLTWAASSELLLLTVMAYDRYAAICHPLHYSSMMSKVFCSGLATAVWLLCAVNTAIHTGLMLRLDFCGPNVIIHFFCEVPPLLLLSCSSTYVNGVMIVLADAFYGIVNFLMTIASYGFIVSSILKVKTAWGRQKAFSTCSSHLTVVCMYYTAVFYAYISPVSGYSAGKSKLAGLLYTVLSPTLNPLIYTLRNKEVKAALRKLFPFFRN
Procedure, shortened: as §1

OR13C2 (Homo sapiens) = biological target: T10, OR13C2 (Homo sapiens) (UniProt Q8NGS9)
T10 sequence (whole entry): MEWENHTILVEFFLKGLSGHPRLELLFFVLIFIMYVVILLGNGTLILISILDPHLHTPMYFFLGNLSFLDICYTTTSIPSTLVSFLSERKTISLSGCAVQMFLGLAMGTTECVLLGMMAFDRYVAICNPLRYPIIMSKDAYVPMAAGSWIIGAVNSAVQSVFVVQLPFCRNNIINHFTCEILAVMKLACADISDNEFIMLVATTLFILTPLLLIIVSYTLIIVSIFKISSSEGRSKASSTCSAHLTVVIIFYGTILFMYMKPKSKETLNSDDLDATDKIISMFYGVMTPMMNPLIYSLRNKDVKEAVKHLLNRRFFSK
Procedure, shortened: as §1

Measured: odorant receptor agonist call;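 note: active if original authors judged signal statistically different from baseline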

CCC(C)=O
inactive: OR10T2 (Homo sapiens) | OR10X1 (Homo sapiens) | OR10Z1 (Homo sapiens) | OR11A1 (Homo sapiens) | OR11H4 (Homo sapiens) | OR11H6 (Homo sapiens) | OR12D2 (Homo sapiens) | OR12D3 (Homo sapiens) | OR13A1 (Homo sapiens) | OR13C2 (Homo sapiens)

CCCCOC(C)=O
inactive: OR10T2 (Homo sapiens) | OR10X1 (Homo sapiens) | OR10Z1 (Homo sapiens) | OR11A1 (Homo sapiens) | OR11H4 (Homo sapiens) | OR11H6 (Homo sapiens) | OR12D2 (Homo sapiens) | OR12D3 (Homo sapiens) | OR13A1 (Homo sapiens) | OR13C2 (Homo sapiens)

CS
inactive: OR10T2 (Homo sapiens) | OR10X1 (Homo sapiens) | OR10Z1 (Homo sapiens) | OR11A1 (Homo sapiens) | OR11H4 (Homo sapiens) | OR11H6 (Homo sapiens) | OR12D2 (Homo sapiens) | OR12D3 (Homo sapiens) | OR13A1 (Homo sapiens) | OR13C2 (Homo sapiens)
